Amino acid sequences for entries named in this document (tags omitted). A change or cut given only in a name is not applied to a line headed by its entry.
UniProt Q01638: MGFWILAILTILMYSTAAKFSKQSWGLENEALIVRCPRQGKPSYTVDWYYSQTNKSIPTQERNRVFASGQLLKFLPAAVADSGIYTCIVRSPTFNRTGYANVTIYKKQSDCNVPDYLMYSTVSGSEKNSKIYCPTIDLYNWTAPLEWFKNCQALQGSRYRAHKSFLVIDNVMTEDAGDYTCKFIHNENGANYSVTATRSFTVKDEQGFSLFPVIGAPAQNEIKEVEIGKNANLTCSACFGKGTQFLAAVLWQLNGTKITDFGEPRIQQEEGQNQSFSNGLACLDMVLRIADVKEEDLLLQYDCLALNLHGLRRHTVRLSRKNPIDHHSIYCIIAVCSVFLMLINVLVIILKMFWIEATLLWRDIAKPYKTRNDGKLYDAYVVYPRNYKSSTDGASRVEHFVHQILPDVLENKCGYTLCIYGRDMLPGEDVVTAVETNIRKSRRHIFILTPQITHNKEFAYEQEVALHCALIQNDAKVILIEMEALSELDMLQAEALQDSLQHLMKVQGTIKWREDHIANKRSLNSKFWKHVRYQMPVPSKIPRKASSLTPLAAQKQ

Where “and” joins values, the source holds several entries; their conditions need not be identical. Equal entries are not always repeated. Among all 78,000 compounds or so, about 1,800 (2.3%) were called active. The inconclusive results got no clear call from the source; some entries with a clear call stand among them for comparison. Rule as the data show it: active = inhibition above about 30%; inconclusive = mostly about 10% to 28%; inactive = weaker than that.
The compounds below were run against Interleukin-1 receptor-like 1 (Homo sapiens) (UniProt Q01638) (assay: blocks human ST2 binding to IL-33, primary screen, biochemical, AlphaLISA (AID 1259354)). Settings: AlphaLISA ST2-Fc/biotin-IL-33 interaction, 1 h; at 17 µM, active compounds read high.
In the case of `O=S(=O)(Nc1ccccn1)c1ccc(N=Cc2c(Cl)cccc2Cl)cc1`, the inhibition is reported as inconclusive: 11%. With `O=C(NCc1ccccn1)c1cc(-c2ccc(Br)s2)nc2ccccc12` the inhibition was inconclusive: 14% and inconclusive: 11%. `O=C1c2ccccc2C(=O)N1CC(=O)N(Cc1ccccc1)c1cccc([N+](=O)[O-])c1` was tested, and the inhibition was inconclusive: 25%. In the case of `Cc1cc(C)n2nc(SCCC(=O)NCC3CCCO3)nc2n1` (stereo unspecified), the inhibition is reported as inconclusive: 12%. For `CCn1nc(C)c(CN2CCCC(Nc3ccc(C(C)C)cc3)C2)c1C` (stereo unspecified), the inhibition was “inactive”. `CCN(Cc1ccncc1)C(=O)CCn1c(C)cc2ccccc21` was tested, and the inhibition was inconclusive: 12%. `COc1cccc(-c2nc3cc(N=Cc4ccccc4[N+](=O)[O-])ccc3o2)c1` was tested, and the inhibition was inconclusive: 18%. `Cc1ccccc1CSc1nc2c(sc3ccccc32)c(=O)n1CCO` was tested, and the inhibition was inconclusive: 11%. `COc1cccc(NC(=O)CSc2nnc(Cc3cc(=O)[nH]c(=O)[nH]3)n2-c2ccccc2)c1` was tested, and the inhibition was inconclusive: 15%. In the case of `Cc1ccsc1C1C(C#N)=C(N)Oc2n[nH]c(-c3ccccc3)c21` (stereo unspecified), the inhibition is reported as inconclusive: 18%. For `Nc1ncnc(N(c2ccccc2)C2CCCCC2)c1[N+](=O)[O-]`, the inhibition was inconclusive: 12%. In the case of `O=C(Nc1cc(C(F)(F)F)ccc1N1CCOCC1)c1cccnc1`, the inhibition is reported as inconclusive: 10%. In the case of `Cc1ccc(-n2c(SCC(=O)Nc3ccc(Cl)cc3)nc3c(c2=O)SCC3)cc1`, the inhibition is reported as inconclusive: 19%. With `c1ccc(COCC2NCCc3[nH]cnc32)cc1` (stereo unspecified) the inhibition was inconclusive: 19%. In the case of `CN(C)Cc1nc(C(=O)N2CCNCC2C(=O)N2CCOCC2)cs1` (stereo unspecified), the inhibition is reported as “inactive”. `CCN1CCN(CC(=O)NCc2cccnc2Oc2ccccc2F)CC1` was tested, and the inhibition was “inactive”. For `Cc1nn(S(=O)(=O)c2cccs2)c(C)c1Sc1ccc([N+](=O)[O-])cc1`, the inhibition was inconclusive: 18%. With `COc1ccc(-c2c3c(=O)n(C)c(=O)n(C)c3c3c(-c4ccccc4)cc(C)nn23)cc1` the inhibition was active: 31%. With `CC(C)C(NS(=O)(=O)c1ccc2c(c1)oc(=O)n2C)C(=O)N1CCCCC1` (stereo unspecified) the inhibition was inconclusive: 18%. `Cn1nccc1C(=O)Nc1ccc(OC(=O)c2ccnn2C)cc1` was tested, and the inhibition was inconclusive: 11%. For `Brc1ccc2[nH]c3nc(SCCN4CCOCC4)nnc3c2c1`, the inhibition was inconclusive: 13%. `CN(C)CCCN1C(=O)C(=O)C(=C(O)c2ccc(S(=O)(=O)N(C)C)cc2)C1c1cccnc1` (stereo unspecified) was tested, and the inhibition was “inactive”. In the case of `O=C(O)CN1C(=O)C2CCCCN2c2ccc(C(=O)N3CCCC3)cc21` (stereo unspecified), the inhibition is reported as inconclusive: 15%. With `Brc1ccc2c(c1)c1nc3ccccc3nc1n2CCN1CCOCC1` the inhibition was inconclusive: 10%. With `CN(C)c1nc(Cl)c(CN2CCCC(OCc3cccnc3)C2)s1` (stereo unspecified) the inhibition was “inactive”. For `Cn1c(COc2ccc(Cl)cc2)nc2ccccc2c1=O`, the inhibition was inconclusive: 26%. `CCCC(=O)N1c2ccccc2-c2nnc(SC)nc2OC1c1ccc2c(c1)OCO2` (stereo unspecified) was tested, and the inhibition was inconclusive: 16%. For `COc1ccc(OC)c(NC(=O)c2cnc(N3CCN(c4ccccn4)CC3)c3ccccc23)c1`, the inhibition was inconclusive: 23%. `Cc1ccc(S(=O)(=O)N2CCN(c3nc(C)cc(N4CCCCC4)n3)CC2)c(C)c1` was tested, and the inhibition was inconclusive: 11%. In the case of `Cc1nc2c(sc3nc4c(cc32)COC(C)(C)C4)c(=O)n1CCc1ccccc1`, the inhibition is reported as “inactive”. `Cc1ccccc1NC(=O)C(=O)N1CCOCC1` was tested, and the inhibition was “inactive”. For `COc1ccc2nc(CCN(C)C(=O)CC3COCCN3)[nH]c2c1` (stereo unspecified), the inhibition was inconclusive: 18%. With `CC(=O)Nc1ccc(NS(=O)(=O)c2ccccc2[N+](=O)[O-])cc1` the inhibition was inconclusive: 13%. With `Cc1cc(C)n(-c2cccc(F)c2)c(=O)c1C(N)=O` the inhibition was inconclusive: 15%. For `CC1=C2[C@@H]([C@H](C)CC[C@H]2/C=C(\C)C(=O)O)[C@H](O)C1`, the inhibition was inconclusive: 11%. With `CCc1noc(CN(CC)C(=O)c2cn(Cc3ccc(F)cc3)nn2)n1` the inhibition was inconclusive: 15%. In the case of `CCOC(=O)CC(=O)CSc1nc2c(c(-c3cccs3)c1C#N)CCCC2`, the inhibition is reported as inconclusive: 17%. `Cc1nn(C)c(C)c1CCC(=O)N1CCc2c([nH]c3ccccc23)C1c1cc(F)ccc1F` (stereo unspecified) was tested, and the inhibition was inconclusive: 19%. For `COc1ccc(C2C(C(=O)NC3CCCCC3)c3cc(OC)c(OC)cc3C(=O)N2C)cc1` (stereo unspecified), the inhibition was inconclusive: 18%. In the case of `O=C(Nc1cnn(Cc2ccc(F)cc2)c1)c1cc(C2CC2)on1`, the inhibition is reported as inconclusive: 10%. `C=CCOc1ccccc1/C=C1/C(=O)N(c2ccc(Cl)c(Cl)c2)N=C1C` was tested, and the inhibition was inconclusive: 18%. `Clc1ccccc1-c1nc(Nc2ccc3c(c2)OCCO3)c2ccccc2n1` was tested, and the inhibition was inconclusive: 18%. With `Cc1ccc(O)c(C2NC(=O)c3c(sc4c3CCC(C(C)(C)C)C4)N2)c1` (stereo unspecified) the inhibition was inconclusive: 10%. With `CC(=O)c1ccc(N2C(=O)c3c(C)nc4ccccc4c3C2=O)cc1` the inhibition was “inactive”. `Cn1c2c(c3cc(Br)ccc31)CCCC2=O` was tested, and the inhibition was inconclusive: 16%. For `Oc1oc(-c2ccc(Cl)cc2)nc1C=Nc1ccc(Br)cc1Br`, the inhibition was inconclusive: 28%. In the case of `CSc1nc(NCCNS(=O)(=O)c2ccc(Cl)cc2)nc(N(C)C)n1`, the inhibition is reported as inconclusive: 15%. For `C=CCN(Cc1ccccc1OC)C(=O)c1ccc(Cl)s1`, the inhibition was inconclusive: 15%. For `C=CCN(C(=O)c1cccc(OC)c1)c1nnc(-c2ccc(Cl)cc2)s1`, the inhibition was “inactive”. In the case of `Nc1n[nH]c(CCCc2nc(N)n[nH]2)n1`, the inhibition is reported as “inactive”. In the case of `C[C@@H]1O[C@@H](Oc2c(-c3ccc(O)c(O)c3)oc3cc(O)cc(O)c3c2=O)[C@H](O)[C@H](OC(=O)c2cc(O)c(O)c(O)c2)[C@H]1O`, the inhibition is reported as inconclusive: 10%. `CN(C)c1nc2c(c(NCC3(COc4ccccc4)CC3)n1)CCNC2` was tested, and the inhibition was inconclusive: 11%. For `CC1=C(C(=O)Nc2cccc(C)n2)C(c2ccc3c(c2)OCO3)C2=C(CCCC2=O)N1` (stereo unspecified), the inhibition was inconclusive: 12%. In the case of `O=S(=O)(NCc1nc2cccnc2n1Cc1ccccc1)c1cccc(Cl)c1`, the inhibition is reported as inconclusive: 11%. With `Clc1ccc(-c2nnc3n2N=C(c2cccs2)CS3)cc1Cl` the inhibition was inconclusive: 20%. `COc1ccccc1CNc1ncnc2nc[nH]c12` was tested, and the inhibition was inconclusive: 20%. `O=C(c1ccc(N2CCC(NCC3C4CC5CC(C4)CC3C5)CC2)cc1)N1CCCC(CO)C1` (stereo unspecified) was tested, and the inhibition was inconclusive: 13%. For `Cc1ccc(-n2c(=O)c3sccc3n(Cc3cc(=O)n4ccccc4n3)c2=O)cc1`, the inhibition was inconclusive: 19%. `CCOC(=O)Cn1c(=O)n(-c2ccc(F)cc2)c2nc(-c3cccc(Cl)c3)nc(C(N)=O)c21` was tested, and the inhibition was “inactive”. With `Cc1cccc(NC(=O)Cc2c(C(=O)O)[nH]c3ccccc23)n1` the inhibition was inconclusive: 11%. `COc1ccccc1N1CCC(N2CCCC(N3CCc4ccccc4C3)C2)CC1` (stereo unspecified) was tested, and the inhibition was “inactive”. For `COC(=O)[C@H]1C[C@@H](O)CCN1S(=O)(=O)c1c(C)cc(OC)c(C)c1C`, the inhibition was inconclusive: 16%. For `COc1ccc(NC(=O)c2ccccc2C)c([N+](=O)[O-])c1`, the inhibition was inconclusive: 25%. In the case of `O=C1c2ccccc2C(=O)N1CN1CCN(c2ccccc2F)CC1`, the inhibition is reported as “inactive”. `CC(C)(C)CN1CC(NC(=O)c2ccc(-c3ccn[nH]3)cc2)CC1=O` (stereo unspecified) was tested, and the inhibition was inconclusive: 16%. In the case of `COc1ccc(C(=O)c2ccc([N+](=O)[O-])cc2)cc1S(=O)(=O)NCc1ccccc1`, the inhibition is reported as inconclusive: 18%. `OC1CCN(Cc2cc(Br)cs2)CC1` was tested, and the inhibition was inconclusive: 18%. `COc1ccc(Oc2c(C(F)(F)F)oc3cc(OC)ccc3c2=O)cc1` was tested, and the inhibition was “inactive”. With `O=C(Nc1ccccc1F)c1cc2ccccn2n1` the inhibition was “inactive”. `CCOc1cc(C2C3=C(CCCC3=O)OC3=C2C(=O)CCC3)ccc1OCC(=O)O` was tested, and the inhibition was inconclusive: 10%. In the case of `O=C(CSc1nc2ccc(NC(=O)c3ccccc3Cl)cc2s1)NCC1CCCO1` (stereo unspecified), the inhibition is reported as inconclusive: 10%. With `O=C(c1cc(-c2ccc(O)cc2)n[nH]1)N1CCCC2(C1)C(=O)Nc1ccccc12` (stereo unspecified) the inhibition was inconclusive: 26%. `CS(=O)(=O)NCCCc1ccccc1` was tested, and the inhibition was inconclusive: 15%. `O=C1C=CC(=NOC(=O)c2ccc(Cl)cc2)C=C1` was tested, and the inhibition was inconclusive: 23%. With `NCCC1CCCC(CCN)N1` (stereo unspecified) the inhibition was inconclusive: 21%. In the case of `CC(C)c1ccc(C(=O)N2CCCc3ccccc32)cc1`, the inhibition is reported as “inactive”. For `CCOc1cc(OCC)cc(C(=O)Nc2cc(-c3nc4ncccc4o3)ccc2C)c1`, the inhibition was inconclusive: 25%. `O=C(Nc1ccncc1)c1c(F)c(F)c(F)c(F)c1F` was tested, and the inhibition was inconclusive: 29%. `CCCC1O[C@@H]2C[C@H]3[C@@H]4CCC5=CC(=O)C=C[C@]5(C)[C@H]4[C@@H](O)C[C@]3(C)[C@]2(C(=O)CO)O1` (stereo partly specified) was tested, and the inhibition was inconclusive: 15%. With `CC(C)N1CCc2c(sc(N)c2C#N)C1` the inhibition was inconclusive: 14%. With `CCC1CN(Cc2cncn2CC(C)C)CCC(=O)N1Cc1ccccc1` (stereo unspecified) the inhibition was “inactive”. With `Cc1ccccc1-c1ncc(CNCCSc2nnnn2C)s1` the inhibition was inconclusive: 14%. In the case of `CN[C@@H]1[C@H](O)[C@H](CO)O[C@@H]1CNC(C)C`, the inhibition is reported as “inactive”. With `CCSc1nc2c(c(=O)[nH]1)C(c1ccc(OC)cc1)C1=C(CCCC1=O)N2` (stereo unspecified) the inhibition was “inactive”. With `Cc1ccc(Nc2c(-c3ccc(C)o3)nc3ccccn23)cc1` the inhibition was inconclusive: 16%. `O=C(c1ccc(F)c(F)c1)N1CCN(S(=O)(=O)c2cc3c4c(c2)CCN4C(=O)CC3)CC1` was tested, and the inhibition was inconclusive: 13%. For `C=C(C)COc1ccc2c3c(c(=O)oc2c1)CCC3`, the inhibition was “inactive”. `CN[C@@H](CC(C)C)C(=O)N[C@H]1C[C@@](O)(C(=O)N[C@H](Cc2ccccc2)C(N)=O)C[C@@H](O)[C@@H]1O` was tested, and the inhibition was inconclusive: 26%. In the case of `COc1cccc(NC(=O)CSc2nc3c(sc4ccccc43)c(=O)n2CCN(C)C)c1`, the inhibition is reported as inconclusive: 13%. For `CCOc1ccccc1CN1CCSCC1`, the inhibition was active: 31%. With `O=C(Nc1cccc(Cl)c1)c1cc(=O)c2ccccc2o1` the inhibition was “inactive”.
